In PMC10576317:
No constants are given. Whether binding was seen depends on the method and setting. Binding seen in cells or lysates may run through a third protein. Some results given as binding are weak or reduced against the parent protein; the word gives no strength.

Chains of the proteins cited; added tags and fusions are not shown. Residues count along the entry.
UniProt P08670: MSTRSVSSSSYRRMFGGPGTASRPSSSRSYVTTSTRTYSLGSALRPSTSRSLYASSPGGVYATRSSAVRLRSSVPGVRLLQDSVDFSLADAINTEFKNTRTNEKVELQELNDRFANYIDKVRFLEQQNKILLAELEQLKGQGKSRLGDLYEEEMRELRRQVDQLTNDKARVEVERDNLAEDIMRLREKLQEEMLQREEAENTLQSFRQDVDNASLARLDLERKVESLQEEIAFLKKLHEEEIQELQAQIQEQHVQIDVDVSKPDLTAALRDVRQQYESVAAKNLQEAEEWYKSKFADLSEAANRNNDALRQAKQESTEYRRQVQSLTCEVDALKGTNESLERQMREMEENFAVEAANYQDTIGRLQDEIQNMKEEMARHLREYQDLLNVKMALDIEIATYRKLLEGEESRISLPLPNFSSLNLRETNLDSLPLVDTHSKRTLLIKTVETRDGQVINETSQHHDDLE
UniProt P63165, residues 1-97: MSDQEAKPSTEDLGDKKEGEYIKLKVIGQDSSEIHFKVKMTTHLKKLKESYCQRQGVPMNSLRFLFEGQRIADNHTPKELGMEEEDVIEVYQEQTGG

Molecular target: vimentin (human (endogenous in Hct116 and LoVo)) (UniProt P08670)
Assay: co-IP; lysates of Hct116 and LoVo control cells and PDCs (after ATO treatment) in immunoprecipitation lysis buffer; anti-vimentin antibody overnight at 4 °C, protein A/G beads 2 h at 4 °C; normal mouse IgG as control; western blot

binding: binds
Substance: SUMO1 (from UniProt P63165 1-97)
